We go through two substances from article PMC4558508.

Sequences of proteins named here, by UniProt entry; tags and fusion partners are left off. Residues count along the entry.
UniProt Q01097, residues 27-1482: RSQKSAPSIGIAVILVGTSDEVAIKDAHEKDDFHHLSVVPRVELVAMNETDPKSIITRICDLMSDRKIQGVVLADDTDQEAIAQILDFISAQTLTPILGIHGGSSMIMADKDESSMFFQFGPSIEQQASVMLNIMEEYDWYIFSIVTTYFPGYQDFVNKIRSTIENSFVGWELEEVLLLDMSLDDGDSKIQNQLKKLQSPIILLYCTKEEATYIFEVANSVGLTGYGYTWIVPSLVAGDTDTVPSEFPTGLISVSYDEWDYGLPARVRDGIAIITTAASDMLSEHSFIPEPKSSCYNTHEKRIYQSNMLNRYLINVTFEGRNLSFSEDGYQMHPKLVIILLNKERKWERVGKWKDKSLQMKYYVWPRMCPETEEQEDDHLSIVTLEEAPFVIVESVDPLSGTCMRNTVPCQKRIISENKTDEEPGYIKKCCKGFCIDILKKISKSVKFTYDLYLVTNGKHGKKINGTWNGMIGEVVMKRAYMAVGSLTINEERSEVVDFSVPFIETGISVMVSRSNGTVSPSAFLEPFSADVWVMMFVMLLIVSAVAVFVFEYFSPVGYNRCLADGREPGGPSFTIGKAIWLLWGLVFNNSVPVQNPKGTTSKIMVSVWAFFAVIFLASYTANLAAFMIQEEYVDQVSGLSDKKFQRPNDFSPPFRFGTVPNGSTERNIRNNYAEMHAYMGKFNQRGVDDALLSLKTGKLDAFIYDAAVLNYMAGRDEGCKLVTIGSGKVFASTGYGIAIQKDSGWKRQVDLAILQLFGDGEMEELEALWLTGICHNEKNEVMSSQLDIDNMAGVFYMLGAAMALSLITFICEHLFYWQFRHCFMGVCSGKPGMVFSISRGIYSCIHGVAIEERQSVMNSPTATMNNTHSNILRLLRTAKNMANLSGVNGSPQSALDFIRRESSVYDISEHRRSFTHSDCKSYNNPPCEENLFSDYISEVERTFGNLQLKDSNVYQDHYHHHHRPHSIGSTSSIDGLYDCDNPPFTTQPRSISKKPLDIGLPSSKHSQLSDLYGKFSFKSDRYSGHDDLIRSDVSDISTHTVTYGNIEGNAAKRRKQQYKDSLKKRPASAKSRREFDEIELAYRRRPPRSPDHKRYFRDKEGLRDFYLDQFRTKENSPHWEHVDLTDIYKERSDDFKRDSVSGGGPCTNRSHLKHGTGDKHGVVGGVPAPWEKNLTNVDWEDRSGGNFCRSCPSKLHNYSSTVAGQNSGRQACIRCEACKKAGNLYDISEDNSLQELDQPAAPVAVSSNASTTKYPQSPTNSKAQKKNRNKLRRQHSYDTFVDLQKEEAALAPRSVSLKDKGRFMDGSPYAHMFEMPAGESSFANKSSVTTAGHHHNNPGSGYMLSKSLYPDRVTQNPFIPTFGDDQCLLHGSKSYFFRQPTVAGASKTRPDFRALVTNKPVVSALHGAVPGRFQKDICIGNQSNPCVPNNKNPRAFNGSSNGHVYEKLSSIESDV
UniProt Q9Z0J4: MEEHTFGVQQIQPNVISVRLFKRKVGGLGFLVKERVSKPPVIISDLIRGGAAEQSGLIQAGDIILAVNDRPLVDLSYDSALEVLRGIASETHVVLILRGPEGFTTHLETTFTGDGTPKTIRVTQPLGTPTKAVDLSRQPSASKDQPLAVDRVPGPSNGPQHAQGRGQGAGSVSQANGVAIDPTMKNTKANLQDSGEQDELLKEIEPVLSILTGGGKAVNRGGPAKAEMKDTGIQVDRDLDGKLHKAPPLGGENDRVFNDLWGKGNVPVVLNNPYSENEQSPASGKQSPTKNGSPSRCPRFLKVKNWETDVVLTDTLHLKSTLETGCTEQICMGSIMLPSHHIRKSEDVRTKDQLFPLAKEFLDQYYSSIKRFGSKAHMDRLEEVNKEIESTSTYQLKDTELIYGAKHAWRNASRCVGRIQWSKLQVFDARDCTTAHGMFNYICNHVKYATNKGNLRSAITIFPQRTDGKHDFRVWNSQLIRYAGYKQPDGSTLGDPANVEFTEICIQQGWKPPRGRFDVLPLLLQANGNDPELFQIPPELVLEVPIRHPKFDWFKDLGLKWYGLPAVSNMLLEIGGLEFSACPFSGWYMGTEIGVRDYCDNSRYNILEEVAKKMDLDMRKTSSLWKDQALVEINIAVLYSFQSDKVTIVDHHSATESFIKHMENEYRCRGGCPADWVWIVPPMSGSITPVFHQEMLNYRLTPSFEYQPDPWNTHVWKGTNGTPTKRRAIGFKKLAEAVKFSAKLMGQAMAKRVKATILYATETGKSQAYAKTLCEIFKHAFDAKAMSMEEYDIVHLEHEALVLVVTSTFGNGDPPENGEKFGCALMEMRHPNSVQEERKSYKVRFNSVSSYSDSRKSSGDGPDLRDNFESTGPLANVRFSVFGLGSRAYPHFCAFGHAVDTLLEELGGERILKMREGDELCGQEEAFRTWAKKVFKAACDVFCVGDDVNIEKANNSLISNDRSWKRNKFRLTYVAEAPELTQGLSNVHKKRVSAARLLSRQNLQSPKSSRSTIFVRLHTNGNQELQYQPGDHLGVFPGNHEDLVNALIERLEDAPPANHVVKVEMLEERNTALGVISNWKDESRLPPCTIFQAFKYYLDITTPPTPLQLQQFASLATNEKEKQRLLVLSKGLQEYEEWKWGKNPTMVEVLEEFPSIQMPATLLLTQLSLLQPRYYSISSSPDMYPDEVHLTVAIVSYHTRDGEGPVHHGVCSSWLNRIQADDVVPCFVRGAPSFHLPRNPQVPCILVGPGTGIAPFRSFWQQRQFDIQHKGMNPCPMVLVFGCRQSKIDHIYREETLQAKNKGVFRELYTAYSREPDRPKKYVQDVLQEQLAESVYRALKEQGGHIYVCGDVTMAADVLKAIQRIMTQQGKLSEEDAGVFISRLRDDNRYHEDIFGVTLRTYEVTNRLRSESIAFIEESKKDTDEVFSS

Assay [1] has as its target NMDA receptor subunit NR2B (mouse (endogenous in cultured cortical neurons)) (UniProt Q01097). The assay can be described thus: co-IP; extracts of cultured mouse cortical neurons (infected with LV-Flag-Homer1a or empty vector, after NMDA injury) precipitated with polyclonal rabbit anti-NR2B and protein G-sepharose, overnight at 4°C; lysis buffer 50 mM Tris-HCl, 150 mM NaCl, 1% NP-40, 2 mM EDTA, pH 7.4; Western blot. (A western blot detects proteins with antibodies after separation by electrophoresis.)

Assay [2] has as its target neuronal nitric oxide synthase (mouse (endogenous in cultured cortical neurons)) (UniProt Q9Z0J4). The assay can be described thus: co-IP; reciprocal: extracts of cultured mouse cortical neurons (infected with LV-Flag-Homer1a or empty vector, after NMDA injury) precipitated with rabbit anti-nNOS and protein G-sepharose, overnight at 4°C; lysis buffer 50 mM Tris-HCl, 150 mM NaCl, 1% NP-40, 2 mM EDTA, pH 7.4; Western blot.

No constants are given. Whether binding was seen depends on the method and setting. Binding seen in cells or lysates may run through a third protein. Some entries that bind do so weakly or less than the wild type.

“neuronal nitric oxide synthase (from UniProt Q9Z0J4 1-1429) (enzyme)”: the binding entry in assay [1] is on record as “binds”.
For the substance “NMDA receptor subunit NR2B (from UniProt Q01097 27-1482)”, the binding entry in assay [2] is “binds”.
